Assay results published in PubChem BioAssay AID651702 (NMMLSC, 2012).
The whole screen tested about 360,000 compounds, of which about 2,400 (0.67%) were called active. The inconclusive results got no clear call from the source; some entries with a clear call stand among them for comparison.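 The calls were made as follows: active = inhibition above about 55% (limit read from the data); inconclusive = no clear call, values can overlap the other calls; inactive = the rest.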

experiment: LAMP-1 surface exposure blockers, TALL-104 cells – cell-based, flow cytometry, MLPCN library, primary screen (AID 651702); details: TALL-104 LAMP-1 surface exposure, cells stimulated with thapsigargin and PMA; at 10 µM, stronger effect = higher value

| Structure (SMILES) | inhibition |
| --- | --- |
| COc1ccc(/C=N/NS(=O)(=O)c2ccccc2)cc1OS(=O)(=O)c1ccc(C)cc1 | inconclusive |
| O=C1c2cccc3c([N+](=O)[O-])ccc(c23)C(=O)N1c1nccs1 | active: 84.8% |
| O=C(Cn1cnc2c(NCc3ccccc3)ncnc21)N1CCN(c2ccccn2)CC1 | inconclusive |
| CCCCCc1c(-c2ccc(OC)cc2)ncn1CCc1ccccc1OC | active: 67.7% |
| CCSc1nc2c(c(=O)[nH]c(=O)n2C)n1C/C=C(/C)Cl | inconclusive |
| Cc1ccc(Nc2nc(C)cs2)cc1 | inconclusive |
| COc1cc(/C=N/NC(=O)CC2C(=O)NN=C2C)ccc1O (configuration not stated) | inactive: 7.4% |
| CCOC(=O)N1CCN(C(=S)NC(=O)c2nn(C)cc2Br)CC1 | inconclusive |
| c1cc2c(cc1C1CCCCC1)c1c3n2CCCNC3CCC1 (configuration not stated) | active: 76.7% |
| COc1ccc2c(c1)c(=Cc1ccc(N(C)C)cc1)c1cc(-c3ccccc3)[n+](C)n12 | active: 95.4% |
| COc1cc(/C=C2\SC(=S)N(CCC(=O)Nc3cccc(O)c3)C2=O)cc(OC)c1OC | active: 85.2% |
| CCOc1c(Br)cc(CNc2ncn[nH]2)cc1OC | inconclusive |
| Cc1cc(OCC(=O)N2CCCCCC2)ccc1[N+](=O)[O-] | inconclusive |
| O=C(N/N=C/c1ccc(-c2ccc([N+](=O)[O-])cc2)o1)[C@H]1C[C@@H]1c1ccccc1 | active: 62.5% |
| CCN1CCN(CCNC(=O)c2ccc3c(c2)N(Cc2cccc(Cl)c2)C(=O)c2ccccc2S3=O)CC1 (configuration not stated) | inconclusive |
| COc1ccc(CC(N)c2csc(Nc3cc(Oc4ccccc4)ncn3)n2)cc1 (configuration not stated) | inactive: 25.1% |
| CC1CCCN(CCOc2cccc(Oc3ccccc3)c2)C1 (configuration not stated) | active: 60% |
| COCc1c(C(=O)N/N=C/c2ccc(C)o2)nnn1-c1nonc1N | inconclusive |
| CC1CCC(=NNC(=O)c2ccccc2-n2cccc2)CC1 (configuration not stated) | inconclusive |
| COc1cc(O)c(C(CC(=O)N2CCCC(C)C2)c2cc(OC)c(OC)c(OC)c2)c(OC)c1 (configuration not stated) | active: 58.2% |
| Cc1ccc(S(=O)(=O)CC(=O)Nc2nnc(C(C)C)s2)cc1 | inconclusive |

Copied from the list:
Entry of `COc1ccc(/C=N/NS(=O)(=O)c2ccccc2)cc1OS(=O)(=O)c1ccc(C)cc1` under inhibition: inconclusive
Entry of `COCc1c(C(=O)N/N=C/c2ccc(C)o2)nnn1-c1nonc1N` under inhibition: inconclusive

Later entries.

| Structure (SMILES) | inhibition |
| --- | --- |
| O=C1CN(C(=O)c2ccc(F)cc2)c2ccccc2N1 | inactive: -2.8% |
| CN(C)CCCn1c2c3ccccc3ccc2c2oc(=O)c3ccccc3c21 | active: 56.3% |
| Cn1c(=O)c2c(nc(N3CCN(c4ccccc4)CC3)n2CCCc2ccccc2)n(C)c1=O | active: 74.1% |
| Cc1ccsc1/C=C/C1=Cc2c(sc(NC(=O)CSc3n[nH]c(N)n3)c2C#N)C(C)(C)C1 | active: 101% |
| COc1ccc(CC(NC(C)=O)C(=O)NC2CCN(S(=O)(=O)c3ccccc3)CC2)c(OC)c1 (configuration not stated) | inconclusive |
| C1=C(N2CCOCC2)/C(=C/c2nc3ccccc3[nH]2)CC1 | inconclusive |
| COc1ccccc1-n1c(SCC(N)=O)nnc1-c1ccccc1 | inactive: -1.7% |
| CN(C)CCNc1ncnc2oc(-c3ccccc3)c(-c3ccccc3)c12 | inactive: 45.4% |
| CCOC(=O)C1=C(C(F)(F)F)Nc2ncnn2C1c1cc(OC)ccc1OC (configuration not stated) | inconclusive |
| C=CCNc1nc(C(=O)OCC(=O)Nc2cc(S(C)(=O)=O)ccc2Cl)cs1 | inconclusive |
| CNC(C)C#Cc1ccc2c(=O)c3ccccc3oc2c1 (configuration not stated) | inactive: 8.1% |
| CCc1ccc(NC(=O)Nc2ccncc2)cc1 | inconclusive |
| c1ccc(Nc2ncnc3[nH]ncc23)cc1 | inactive: 0.5% |
| CCOc1cccc(C(=O)Nc2nc(-c3ccc(S(=O)(=O)N4CCOCC4)cc3)cs2)c1 | inactive: -1.2% |
| c1csc(-c2ncc3ccccn23)c1 | inconclusive |
| COC(=O)CSc1nc2sc3c(c2c(=O)n1-c1ccc(OC)cc1)CCN(C)C3 | inactive: 5.5% |
| COc1ccccc1CNc1nc2cc(-c3sccc3C)sc2c(=O)n1C | inconclusive |
| Nc1ccc(NC(=O)c2cccc(C(=O)Nc3ccc(N)cc3Cl)c2)c(Cl)c1 | inconclusive |
| CCCc1nnc(NC(=O)CN2C(=O)c3ccccc3C2=O)s1 | inconclusive |
| CCOc1ccccc1CNc1nnnn1C | inactive: -0.4% |
| O=C(COC(=O)CCc1ccccc1)Nc1ccc(F)cc1Cl | inactive: -9.3% |

| Structure (SMILES) | inhibition |
| --- | --- |
| CCN1CCN(c2ccc(S(=O)(=O)N3CCCCC3)cc2NC(=O)Cc2ccc(Cl)c(Cl)c2)CC1 | active: 56.4% |
| CCC(C)(C)c1nnc(NC(=O)C2CC(=O)N(CCc3ccc(F)cc3)C2)s1 (configuration not stated) | inconclusive |
| C/C(=N\NC(N)=S)C1=CCC2C3CC[C@H]4CC(O)CC[C@]4(C)C3CC[C@]12C (some centres not stated) | active: 55.6% |
| COc1ccc(Nc2nc(-c3sc(C)nc3C)cs2)cc1 | active: 81.8% |
| O=C1C(=O)N(C/C=C/c2ccccc2)c2ccccc21 | active: 61.7% |
| CN(C)c1ccc(N/C=C/C(=O)c2ccc(F)cc2)cc1 | inactive: -2.3% |
| O=C(Nc1ccccc1)Nc1cccc(NC(=O)Nc2ccccc2)c1F | inconclusive |
| Cc1ccc(NC(=O)Cc2ccc3c(c2)OCCO3)cc1S(=O)(=O)N1CCCCC1 | inconclusive |
| CC(=O)c1ccc(Nc2nc3ccccc3nc2NS(=O)(=O)c2cccs2)cc1 | inactive: 27.6% |
| Cc1cc(C)c2c(CC(=O)NN(C)C)coc2c1 | inconclusive |
| COC(=O)Cn1c2nc3ccccc3nc2c2cccc(C)c21 | inconclusive |
| CCN(CC)C(CNS(=O)(=O)c1ccc(Cl)cc1)c1ccccc1 (configuration not stated) | inactive: -4.7% |
| CCOc1ccc(S(=O)(=O)N(C)CC(=O)NCc2ccco2)cc1 | inactive: -3.4% |
| CCN(CC)c1ccc(/C=N/NC(=O)CNC(=O)c2ccccn2)cc1 | inconclusive |
| COc1ccc(/C=C/C(=O)NCCCc2ccccc2)cc1 | inactive: 2.6% |
| CCn1c(-c2nn(C)c(C)c2Cl)n[nH]c1=S | inactive: -5.8% |
| C=CCOc1ccccc1CN(CCc1ccccc1)C(=O)c1cccc(S(C)(=O)=O)c1 | inconclusive |
| O=C(Nc1cccc(OC(=O)c2ccc(Br)o2)c1)c1ccccc1 | inconclusive |
| CC(C)(C)C(=O)Nc1cc(NC(=O)C(C)(C)C)cc(C(=O)Nc2c[nH]c(=O)[nH]c2=O)c1 | inactive: 2.3% |
| Nc1ccccc1SCC(=O)N1CCc2ccccc21 | inconclusive |
